Assay results reported in the supplement of paper PMC6078165.

System: MDAMB436
Experiment: relative JC-1 red fluorescence (viability) vs pre-drug, coculture with fibroblast (fraction); higher = more viable cancer cells
Protocol: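 JC-1 labelled TNBC cells cocultured 1:1 (1,500 cells each) with CellTrace Violet stained primary or stromal fibroblasts in 384-well plates in FluoroBrite medium, treated with one of 42 anticancer drugs at 0.1, 1, 10 or 100 uM. JC-1 red fluorescence (mitochondrial integrity in cancer cells only) was read by plate reader every 8 h for 72 h. Values are normalised to each well's pre-drug value. The stock of one drug was tenfold lower, so its dose labels may be too high.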

C[C@]12CC[C@@H]3c4ccc(O)cc4C[C@@H](CCCCCCCCC[S+]([O-])CCCC(F)(F)C(F)(F)F)[C@H]3[C@@H]1CC[C@@H]2O (stereo partly specified) [Fulvestrant]
relative JC-1 red fluorescence
Settings	8 h	16 h	24 h	32 h	40 h	48 h	56 h	64 h	72 h
0.1 µM, coculture fibroblast: C12385	0.81	0.711	0.649	0.574	0.519	0.487	0.467	0.447	0.439
0.1 µM, coculture fibroblast: H6013	0.807	0.724	0.693	0.674	0.655	0.658	0.631	0.61	0.565
0.1 µM, coculture fibroblast: H6019	0.7474	0.621	0.5993	0.529	0.482	0.458	0.423	0.396	0.372
0.1 µM, coculture fibroblast: H6076	0.763	0.657	0.619	0.575	0.55	0.519	0.528	0.519	0.5
0.1 µM, coculture fibroblast: H6231	0.75	0.65	0.635	0.5816	0.56	0.527	0.511	0.48	0.454
0.1 µM, coculture fibroblast: HADF	0.8061	0.71707	0.677	0.638	0.601	0.593	0.548	0.524	0.484
0.1 µM, coculture fibroblast: HCFa	0.835	0.744	0.691	0.647	0.605	0.599	0.539	0.51328	0.4542
0.1 µM, coculture fibroblast: HCPF	0.7831	0.706	0.673	0.626	0.599	0.567	0.535	0.521	0.496
0.1 µM, coculture fibroblast: HHSteC	0.854	0.82	0.775	0.75	0.73	0.74	0.672	0.647	0.581
0.1 µM, coculture fibroblast: HMF	0.84	0.743	0.684	0.646	0.615	0.586	0.567	0.541	0.523
0.1 µM, coculture fibroblast: HPFa	0.846	0.773	0.721	0.664	0.639	0.63	0.549	0.512	0.44
0.1 µM, coculture fibroblast: HUF	0.8245	0.7157	0.6552	0.57426	0.5241	0.4859	0.4552	0.433	0.42017
0.1 µM, coculture fibroblast: Hs5	0.842	0.787	0.752	0.699	0.676	0.629	0.627	0.588	0.574
0.1 µM, coculture fibroblast: Hs27A	0.7516	0.681	0.664	0.637	0.603	0.645	0.549	0.522	0.448
0.1 µM, coculture fibroblast: Hs343T	0.8076	0.71462	0.639	0.59	0.537	0.495	0.46	0.439	0.418
0.1 µM, coculture fibroblast: WS1	0.8	0.708	0.658	0.578	0.537	0.517	0.491	0.459	0.45
1 µM, coculture fibroblast: C12385	0.7759	0.7186	0.7084	0.638	0.604	0.584	0.557	0.54	0.528
1 µM, coculture fibroblast: H6013	0.822	0.821	0.822	0.827	0.836	0.878	0.843	0.825	0.771
1 µM, coculture fibroblast: H6019	0.753	0.727	0.742	0.693	0.672	0.659	0.624	0.59	0.5538
1 µM, coculture fibroblast: H6076	0.774	0.733	0.735	0.687	0.663	0.638	0.642	0.64	0.622
1 µM, coculture fibroblast: H6231	0.829	0.771	0.883	0.828	0.834	0.827	0.833	0.832	0.812
1 µM, coculture fibroblast: HADF	0.83	0.808	0.799	0.786	0.791	0.835	0.779	0.794	0.755
1 µM, coculture fibroblast: HCFa	0.773	0.756	0.739	0.698	0.681	0.697	0.631	0.611	0.551
1 µM, coculture fibroblast: HCPF	0.797	0.777	0.783	0.7302	0.705	0.675	0.655	0.638	0.605
1 µM, coculture fibroblast: HHSteC	0.817	0.823	0.824	0.79	0.784	0.791	0.72	0.696	0.629
1 µM, coculture fibroblast: HMF	0.799	0.723	0.711	0.6616	0.629	0.5852	0.5714	0.5556	0.5338
1 µM, coculture fibroblast: HPFa	0.8593	0.813	0.791	0.749	0.729	0.737	0.632	0.593	0.504
1 µM, coculture fibroblast: HUF	0.8479	0.7622	0.7513	0.684	0.6394	0.622	0.5926	0.573	0.555
1 µM, coculture fibroblast: Hs5	0.806	0.779	0.774	0.721	0.701	0.655	0.653	0.624	0.589
1 µM, coculture fibroblast: Hs27A	0.819	0.76	0.76	0.743	0.717	0.778	0.669	0.654	0.569
1 µM, coculture fibroblast: Hs343T	0.783	0.693	0.678	0.63	0.61	0.574	0.554	0.534	0.52
1 µM, coculture fibroblast: WS1	0.7398	0.713	0.705	0.6303	0.595	0.57	0.549	0.531	0.523
10 µM, coculture fibroblast: C12385	0.902	0.863	0.843	0.745	0.703	0.689	0.656	0.644	0.625
10 µM, coculture fibroblast: H6013	0.971	0.953	0.902	0.906	0.881	0.885	0.865	0.85	0.828
10 µM, coculture fibroblast: H6019	0.868	0.842	0.826	0.788	0.775	0.772	0.75	0.738	0.727
10 µM, coculture fibroblast: H6076	0.9294	0.896	0.8123	0.761	0.714	0.71	0.721	0.741	0.733
10 µM, coculture fibroblast: H6231	0.9386	0.978	0.978	0.906	0.948	0.915	0.935	0.981	0.9857
10 µM, coculture fibroblast: HADF	0.865	0.955	0.941	0.912	0.928	0.906	0.829	0.911	0.838
10 µM, coculture fibroblast: HCFa	0.951	0.9469	0.887	0.848	0.826	0.828	0.793	0.81	0.783
10 µM, coculture fibroblast: HCPF	0.969	0.777	0.748	0.9261	0.949	0.894	0.948	0.829	0.881
10 µM, coculture fibroblast: HHSteC	0.948	0.905	0.927	0.909	0.91	0.798	0.878	0.868	0.826
10 µM, coculture fibroblast: HMF	0.952	0.9093	0.838	0.7508	0.709	0.68	0.6453	0.6268	0.631
10 µM, coculture fibroblast: HPFa	0.958	0.926	0.848	0.7859	0.741	0.724	0.641	0.602	0.536
10 µM, coculture fibroblast: HUF	0.919	0.84	0.791	0.725	0.674	0.635	0.607	0.585	0.571
10 µM, coculture fibroblast: Hs5	0.891	0.86	0.807	0.715	0.677	0.658	0.658	0.636	0.617
10 µM, coculture fibroblast: Hs27A	0.942	0.84	0.897	0.883	0.835	0.864	0.788	0.778	0.74
10 µM, coculture fibroblast: Hs343T	0.92	0.917	0.835	0.757	0.709	0.687	0.676	0.676	0.662
10 µM, coculture fibroblast: WS1	0.8785	0.8255	0.797	0.716	0.676	0.659	0.626	0.602	0.586
100 µM, coculture fibroblast: C12385	0.936	0.892	0.865	0.923	0.868	0.911	0.917	0.846	0.917
100 µM, coculture fibroblast: H6013	0.921	0.951	0.931	0.938	0.914	0.938	0.907	0.888	0.856
100 µM, coculture fibroblast: H6019	0.896	0.78	0.897	0.795	0.767	0.873	0.787	0.875	0.865
100 µM, coculture fibroblast: H6076	0.887	0.986	0.814	0.972	0.947	0.91	0.915	0.931	0.954
100 µM, coculture fibroblast: H6231	0.731	0.8	0.825	0.816	0.786	0.821	0.819	0.757	0.914
100 µM, coculture fibroblast: HADF	0.8026	0.935	0.937	0.937	0.867	0.952	0.854	0.821	0.806
100 µM, coculture fibroblast: HCFa	0.97	0.95	0.94	0.932	0.908	0.947	0.8824	0.918	0.874
100 µM, coculture fibroblast: HCPF	0.896	0.804	0.817	0.741	0.738	0.803	0.799	0.85	0.782
100 µM, coculture fibroblast: HHSteC	0.931	0.936	0.912	0.885	0.858	0.869	0.802	0.7874	0.7393
100 µM, coculture fibroblast: HMF	0.728	0.888	0.9284	0.892	0.867	0.848	0.841	0.85	0.86
100 µM, coculture fibroblast: HPFa	0.93327	0.91	0.874	0.839	0.818	0.822	0.743	0.71	0.64
100 µM, coculture fibroblast: HUF	0.97	0.934	0.952	0.912	0.892	0.874	0.864	0.862	0.861
100 µM, coculture fibroblast: Hs5	0.764	0.95672	0.921	0.867	0.839	0.815	0.812	0.799	0.81
100 µM, coculture fibroblast: Hs27A	0.971	0.946	0.933	0.924	0.871	0.79	0.833	0.823	0.77
100 µM, coculture fibroblast: Hs343T	0.762	0.864	0.895	0.94	0.909	0.875	0.8584	0.846	0.839
100 µM, coculture fibroblast: WS1	0.925	0.922	0.7658	0.894	0.867	0.875	0.846	0.904	0.918

Values are relative to the signal before dosing, not to a vehicle control; the signal also falls without drug.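 Fibroblast labels denote human fibroblasts, mainly primary ones from uterus (C12385, HUF), lung (H6013), bone (Hs27A), adrenal (HADF) and skin (WS1), plus mammary HMF and breast cancer-associated Hs343T. Cancer cells are basal-like or mesenchymal-like triple-negative breast cancer lines. A hit is a response shift exceeding 3x replicate standard deviation. The tissue of the other fibroblasts is not given here.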
